Results are given in words; binding and its absence hold for the method and conditions named. Binding seen in cells or lysates may run through a third protein. Here binding means that the protein was enriched with, or labelled near, the bait; the list need not be complete. Tags and fused reporters may be left off the sequences shown.
Molecular target: T1, GFP-tagged Lrif1 long isoform (expressed in E14 mESCs) (mouse) (UniProt Q8CDD9)
T1 sequence: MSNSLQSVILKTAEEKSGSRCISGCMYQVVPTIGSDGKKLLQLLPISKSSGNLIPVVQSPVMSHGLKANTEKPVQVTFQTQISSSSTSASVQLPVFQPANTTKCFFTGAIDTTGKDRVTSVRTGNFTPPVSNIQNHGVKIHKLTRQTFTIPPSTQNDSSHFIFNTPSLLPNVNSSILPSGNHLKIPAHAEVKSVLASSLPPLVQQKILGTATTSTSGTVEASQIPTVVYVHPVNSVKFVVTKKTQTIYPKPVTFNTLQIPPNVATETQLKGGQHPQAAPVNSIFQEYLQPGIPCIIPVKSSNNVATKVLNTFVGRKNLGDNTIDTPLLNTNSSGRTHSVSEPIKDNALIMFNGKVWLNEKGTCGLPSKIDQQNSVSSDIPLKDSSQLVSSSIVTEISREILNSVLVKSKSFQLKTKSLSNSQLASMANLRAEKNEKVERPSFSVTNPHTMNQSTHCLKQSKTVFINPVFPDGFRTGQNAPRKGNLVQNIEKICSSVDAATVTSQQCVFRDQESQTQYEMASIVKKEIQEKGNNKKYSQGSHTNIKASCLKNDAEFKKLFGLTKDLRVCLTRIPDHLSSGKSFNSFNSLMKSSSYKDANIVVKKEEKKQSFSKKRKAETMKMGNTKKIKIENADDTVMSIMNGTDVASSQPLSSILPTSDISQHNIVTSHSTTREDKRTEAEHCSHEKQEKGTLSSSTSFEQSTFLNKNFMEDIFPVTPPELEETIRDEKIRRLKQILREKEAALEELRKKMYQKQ
Test: affinity purification with mass spectrometry

Protein sequences, listed by entry. Tags and fused reporters are not part of them.
UniProt Q6P5D8: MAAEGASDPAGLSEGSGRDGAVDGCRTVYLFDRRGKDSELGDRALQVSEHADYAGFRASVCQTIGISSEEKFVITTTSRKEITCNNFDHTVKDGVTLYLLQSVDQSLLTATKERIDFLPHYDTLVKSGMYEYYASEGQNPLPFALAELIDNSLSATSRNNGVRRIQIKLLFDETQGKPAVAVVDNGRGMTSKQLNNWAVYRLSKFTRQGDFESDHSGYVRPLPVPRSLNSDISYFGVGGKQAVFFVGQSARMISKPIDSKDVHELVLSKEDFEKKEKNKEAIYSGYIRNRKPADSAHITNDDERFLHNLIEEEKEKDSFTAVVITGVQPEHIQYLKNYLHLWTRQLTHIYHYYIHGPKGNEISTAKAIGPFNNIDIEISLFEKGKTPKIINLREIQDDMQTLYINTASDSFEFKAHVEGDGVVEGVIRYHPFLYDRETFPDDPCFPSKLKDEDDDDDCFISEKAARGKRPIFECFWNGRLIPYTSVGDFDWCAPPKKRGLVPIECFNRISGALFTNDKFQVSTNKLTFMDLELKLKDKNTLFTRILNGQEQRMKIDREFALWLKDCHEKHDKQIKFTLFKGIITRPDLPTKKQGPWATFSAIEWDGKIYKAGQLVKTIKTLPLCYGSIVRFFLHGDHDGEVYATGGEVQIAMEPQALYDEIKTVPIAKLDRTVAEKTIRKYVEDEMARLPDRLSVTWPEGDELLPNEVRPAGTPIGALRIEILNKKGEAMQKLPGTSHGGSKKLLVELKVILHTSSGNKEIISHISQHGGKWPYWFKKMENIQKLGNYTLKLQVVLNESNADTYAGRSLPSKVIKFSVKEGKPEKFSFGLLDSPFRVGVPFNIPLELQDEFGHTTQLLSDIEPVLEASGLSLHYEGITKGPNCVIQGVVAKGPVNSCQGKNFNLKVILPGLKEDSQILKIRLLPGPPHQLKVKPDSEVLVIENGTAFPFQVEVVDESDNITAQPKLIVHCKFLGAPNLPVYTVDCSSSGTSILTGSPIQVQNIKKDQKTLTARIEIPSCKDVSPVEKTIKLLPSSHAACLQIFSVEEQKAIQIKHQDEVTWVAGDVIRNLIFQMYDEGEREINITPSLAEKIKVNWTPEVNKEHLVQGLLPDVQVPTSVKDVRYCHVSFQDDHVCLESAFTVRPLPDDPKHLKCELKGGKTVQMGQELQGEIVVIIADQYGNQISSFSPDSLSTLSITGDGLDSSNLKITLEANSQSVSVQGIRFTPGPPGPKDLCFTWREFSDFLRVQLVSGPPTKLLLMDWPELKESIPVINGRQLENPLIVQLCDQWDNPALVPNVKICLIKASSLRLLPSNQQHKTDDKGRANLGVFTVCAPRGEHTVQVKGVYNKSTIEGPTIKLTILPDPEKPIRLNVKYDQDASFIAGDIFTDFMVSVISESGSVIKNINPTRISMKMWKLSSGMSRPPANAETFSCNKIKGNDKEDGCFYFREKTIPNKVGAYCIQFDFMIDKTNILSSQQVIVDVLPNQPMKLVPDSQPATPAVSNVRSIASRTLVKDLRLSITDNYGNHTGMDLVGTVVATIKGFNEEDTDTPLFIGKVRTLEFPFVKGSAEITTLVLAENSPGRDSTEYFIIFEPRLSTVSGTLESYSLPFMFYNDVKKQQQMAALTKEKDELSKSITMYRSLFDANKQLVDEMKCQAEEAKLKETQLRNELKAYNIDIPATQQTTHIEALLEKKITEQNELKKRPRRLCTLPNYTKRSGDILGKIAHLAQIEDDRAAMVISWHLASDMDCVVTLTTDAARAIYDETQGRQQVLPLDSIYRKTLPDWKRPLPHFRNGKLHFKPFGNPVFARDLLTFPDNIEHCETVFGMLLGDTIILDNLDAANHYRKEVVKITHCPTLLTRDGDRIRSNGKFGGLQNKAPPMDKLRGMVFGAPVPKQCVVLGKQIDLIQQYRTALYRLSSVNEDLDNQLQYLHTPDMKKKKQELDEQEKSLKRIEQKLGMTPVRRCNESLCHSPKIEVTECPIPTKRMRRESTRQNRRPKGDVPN

Smchd1, endogenous in mESCs (from UniProt Q6P5D8 1-2007)
binding: binds
